Experimental data: patent US20220249563A1 (LEGEND BIOTECH IRELAND, published 2022)
These are yes or no findings as the source states them, for the method shown. Some results given as binding are weak or reduced against the parent protein; the word gives no strength.

Chains of the proteins cited; added tags and fusions are not shown. Lines headed by an entry give the natural chain unless they say otherwise; changes in a name come on top. A line that says so, or that is headed by a name, gives the form on record, which may keep a tag or linker. Residues count along the entry.
UniProt Q9NYJ7, residues 27-466: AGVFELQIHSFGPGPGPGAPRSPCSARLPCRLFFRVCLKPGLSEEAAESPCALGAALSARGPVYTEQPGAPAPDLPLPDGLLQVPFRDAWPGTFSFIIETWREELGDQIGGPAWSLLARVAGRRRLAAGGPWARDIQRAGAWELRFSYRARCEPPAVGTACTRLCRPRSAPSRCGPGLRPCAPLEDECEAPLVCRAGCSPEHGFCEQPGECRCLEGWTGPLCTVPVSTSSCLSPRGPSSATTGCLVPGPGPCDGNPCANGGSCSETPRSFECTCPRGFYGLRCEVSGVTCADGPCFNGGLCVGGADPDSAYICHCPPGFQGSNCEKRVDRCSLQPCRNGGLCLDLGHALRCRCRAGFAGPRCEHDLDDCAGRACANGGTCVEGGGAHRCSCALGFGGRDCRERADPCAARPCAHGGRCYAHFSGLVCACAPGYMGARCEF
rhesus DLL3 (F6TFV4, form named): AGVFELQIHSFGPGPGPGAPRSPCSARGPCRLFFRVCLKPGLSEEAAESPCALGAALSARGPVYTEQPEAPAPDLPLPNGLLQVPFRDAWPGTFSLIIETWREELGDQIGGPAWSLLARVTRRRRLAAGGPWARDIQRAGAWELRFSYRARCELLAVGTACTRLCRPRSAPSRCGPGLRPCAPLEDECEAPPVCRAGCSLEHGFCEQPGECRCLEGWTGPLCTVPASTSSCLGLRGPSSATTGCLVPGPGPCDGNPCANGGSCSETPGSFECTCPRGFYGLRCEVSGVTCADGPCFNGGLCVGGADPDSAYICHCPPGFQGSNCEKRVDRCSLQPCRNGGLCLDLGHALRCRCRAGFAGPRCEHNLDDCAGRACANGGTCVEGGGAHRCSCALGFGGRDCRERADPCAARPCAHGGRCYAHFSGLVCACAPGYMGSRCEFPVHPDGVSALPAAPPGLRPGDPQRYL

B1: AS69498 (VHH)
VHH: QVQLQESGGGSVQAGGSLRLSCEASGNTYSSNYMAWFRQAPGKEREEVAVIYTRGGHTYYIDSVRGRFTISQDNAKNTVYLQMNSLKPEDTAMYYCAASSRHRLRLSDPRDYDYWGQGTQVTVSS
B2: AS64606 (VHH)
VHH: EVQLAESGGGSVQAGGSLRLSCAVSGYTSRSNYMGWFRQAPGKEREGVALIYTRGGSTYYASSVKGRFTISQDSAKKTYLQMNSVKPEDTAMYYCALRLDEKMYWGQGTQVTVSS
B3: AS64071 (VHH)
VHH: QVHLMESGGGSVQAGGSLRLSCVASGNTYRLNSMGWFRQAPGKEREGVAFIVMIRGTTYYGASVKGRFTISQDNAQTTVYLQMSSLKPEDTAMYYCAASTKDQFYVFNPIGYDSWGQGTQVTVSS
notes: camel sdAb; crude E. coli supernatant
B4: AS64060 (VHH)
VHH: QVKLVESGGGSVQAGGSLRLSCAASGSTYCTYRMSWFRQAPGKEREFVAVIDSGGSTSYADSVKGRFTISRDNAKNTVYLQMNSLKPEDTAMYYCKTDPTIGCPQTYRYNYWGQGTQVTVSS
notes: as for B3
B5: AS76169 (VHH)
VHH: QVHLMESGGGSVQAGGSLRLSCAASGYIYSSFCMGWFRQAPGKEREVVAYIRDNIMTSYTDSVKGRFTISKDNAKRTLYLQMNGLKPEDTGMYYCAVDRGGYANSCAVAARYDYWGRGTQVTVSS
notes: as for B3
B6: AS75387 (VHH)
VHH: QVHLVESGGGSVQAGGSLRLSCAASGYPYSSPCMAWFRQAPGKEREGVLVAYTGGDIQYLTDSVKGRFTISRDNAKNTVYLQMNSLKPEDTAMYYCAADLRLPRAGGCAYSYWGQGTQVTVSS
notes: as for B3
B7: AS63993 (VHH)
VHH: QVKLVESGGGLVQAGGSLRLSCTVSGFTFDDLVMAWFRQAPGKERQLVSLVATAGNSVYADSVKGRFTLSRDNAHSTAYLQMNGLKPEDTAMYYCAARTDSEHAFKFWGQGTQVTVSS
notes: as for B3
B8: AS64006 (VHH)
VHH: QVHLVESGGGSVQAGGSLRLSCEVSGYTGDTTYIGWFRQAPGKEREGVALIYTSGTSEYYADSVKGRFIISRDNAKNTVYLQMNSLKPEDTAMYYCGARSRTMMYWGQGTQVTVSS
notes: as for B3
B9: AS75695 (VHH)
VHH: QVRLVESGGGSVQAGGSLRLSCVASGYTVSAYCMGWFRQVLGKGRERIAFIDAGGATIYADPVKGRFTISKDNAKNTLYLQMNSLKPEDTAMYYCVADRRGRVRRCEYNAWGQGTQVTVSS
notes: as for B3
B10: AS75376 (VHH)
VHH: QVQLKESGGGSVQAGGSLRLSCAASGYTYSSHSMGWFRQAPGKEREGVAVIYTGDGSTYYADSVKGRFTISQDNAKNTVYLQMNSLKPEDTAMYYCAADPNPDYMLPFRPSRRSWWGQGTQVTVSS
notes: as for B3
B11: AS68355 (VHH)
VHH: QMQLVESGGDSVQAGGSLRLSCAASGYTYSGVCMGWFRQAPGKEREGVAAIDSDGSTSYADSVKGRFTISKDNAKNTLYLQMNSLKPEDTAMYYCAAAIVGGFNAYCSGGYVLDFGAWGQGTQVTVSS
notes: as for B3
B12: AS63956 (VHH)
VHH: QVHLVESGGGLVQAGGSLRLSCAASGFTYSNCCMRWYRQAPGKARELVSLINSSGGTYYADSVRGRFTISKDNAKNTLYLQMNSLKPEDTAMYYCAAYQAKYCSGPCAPPTDWGQGTQVTVSS
notes: as for B3
B13: AS63965 (VHH)
VHH: QVQLVESGGGSVQAGGSLRLSCVASGYSSGSCRMGWYRQAPGKERELVSKVISDGTTVYADSVKGRFTLSQGNAKNTVYLQMSSLLPEDTAMYYCNAWCREYPGGILNNGWGQGTQVTVSS
notes: as for B3
B14: AS63937 (VHH)
VHH: QVKLVESGGGSVQAGGSLRLSCAASGSTISSRPMAWFRQAPGKEREGVACIHTGLGRTYYADSVKGRFTISQDNAKNTVYLQVNSLKPEDTAMYYCAADSRRPCMVAAGYTYWGQGTQVTVSS
notes: as for B3
B15: AS69443 HCAb (Fc fusion, not shown: a dimerising Fc or GST)
chain: EVQLAESGGGSVQAGGSLRLSCSASGFTFDDSDMAWYRQAPGDGCDLVSTISSDGSTYYADSVKGRFTISQDNAKNTVYLQMHSLKPEDTAVYYCAADFLTGFYYSDSPHPAPCSASDFGYWGQGTQVTVSS
B16: AS63931 HCAb (Fc fusion, not shown: a dimerising Fc or GST)
chain: EVQLAESGGGSVQAGGSLRLSCAGSFSGYGVSTMAWFRQAPGKEREGVAAITVGSGNTYYADSVTGRFTISRDNAKRTVYLQMNSLKPEDTAMYYCAAGWLSGGSWHVPGRYNYWGQGTQVTVSS

Molecular target: extracellular domain of human DLL3 protein (aa27-466) having an N-terminal FLAG tag (AdipoGen, AG-40B-0151) (human) (UniProt Q9NYJ7)
Experiment: ELISA (protein), FACS (cells)

| binding | Binder |
| --- | --- |
| binds | B1 |
| binds | B2 |

Molecular target: rhesus DLL3 (rhesus) (UniProt F6TFV4)
Experiment: ELISA (protein), FACS (cells)

| binding | Binder |
| --- | --- |
| binds | B3 |
| binds | B4 |
| binds | B5 |
| binds | B1 |
| binds | B6 |
| binds | B7 |
| binds | B8 |
| binds | B2 |
| binds | B9 |
| binds | B10 |
| binds | B11 |
| binds | B12 |
| binds | B13 |
| binds | B14 |
| binds | B15 |
| binds | B16 |
